Measurements taken from PMC3871820.
Results are given in words; binding and its absence hold for the method and conditions named.

By UniProt entry, the sequences of proteins in these tests, tags left out.
UniProt Q9LQF0: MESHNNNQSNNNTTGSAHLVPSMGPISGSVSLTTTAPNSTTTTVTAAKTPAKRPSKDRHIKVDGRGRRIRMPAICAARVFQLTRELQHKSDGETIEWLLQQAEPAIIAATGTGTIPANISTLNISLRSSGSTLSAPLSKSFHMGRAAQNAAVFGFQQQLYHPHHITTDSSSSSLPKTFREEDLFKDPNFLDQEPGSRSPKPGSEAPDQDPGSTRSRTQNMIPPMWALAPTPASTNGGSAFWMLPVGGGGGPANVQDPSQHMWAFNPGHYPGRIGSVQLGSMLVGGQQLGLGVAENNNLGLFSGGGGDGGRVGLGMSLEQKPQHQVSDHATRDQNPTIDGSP
UniProt Q9C7G4: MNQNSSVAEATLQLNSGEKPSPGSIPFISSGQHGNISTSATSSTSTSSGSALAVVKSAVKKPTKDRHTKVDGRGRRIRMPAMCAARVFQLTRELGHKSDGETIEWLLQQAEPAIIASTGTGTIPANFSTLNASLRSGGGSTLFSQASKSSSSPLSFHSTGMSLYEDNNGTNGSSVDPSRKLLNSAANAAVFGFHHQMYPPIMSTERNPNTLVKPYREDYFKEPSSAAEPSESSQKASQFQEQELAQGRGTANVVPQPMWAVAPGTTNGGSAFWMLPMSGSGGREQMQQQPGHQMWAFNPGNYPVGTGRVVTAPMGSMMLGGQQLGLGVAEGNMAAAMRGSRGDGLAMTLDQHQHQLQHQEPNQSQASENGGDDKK
UniProt Q93Z00: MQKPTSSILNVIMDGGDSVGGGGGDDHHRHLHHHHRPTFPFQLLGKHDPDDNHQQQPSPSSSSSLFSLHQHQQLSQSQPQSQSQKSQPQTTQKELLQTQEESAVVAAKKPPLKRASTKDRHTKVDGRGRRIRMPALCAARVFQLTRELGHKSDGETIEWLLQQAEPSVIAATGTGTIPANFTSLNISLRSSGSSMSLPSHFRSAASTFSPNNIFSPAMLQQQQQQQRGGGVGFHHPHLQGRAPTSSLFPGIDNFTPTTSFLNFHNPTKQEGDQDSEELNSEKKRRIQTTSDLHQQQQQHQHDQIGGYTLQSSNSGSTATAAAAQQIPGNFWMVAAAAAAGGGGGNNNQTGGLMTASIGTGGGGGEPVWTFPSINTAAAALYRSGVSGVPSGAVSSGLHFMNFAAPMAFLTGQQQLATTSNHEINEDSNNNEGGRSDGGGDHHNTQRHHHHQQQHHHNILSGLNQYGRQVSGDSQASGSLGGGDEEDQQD
UniProt O64647: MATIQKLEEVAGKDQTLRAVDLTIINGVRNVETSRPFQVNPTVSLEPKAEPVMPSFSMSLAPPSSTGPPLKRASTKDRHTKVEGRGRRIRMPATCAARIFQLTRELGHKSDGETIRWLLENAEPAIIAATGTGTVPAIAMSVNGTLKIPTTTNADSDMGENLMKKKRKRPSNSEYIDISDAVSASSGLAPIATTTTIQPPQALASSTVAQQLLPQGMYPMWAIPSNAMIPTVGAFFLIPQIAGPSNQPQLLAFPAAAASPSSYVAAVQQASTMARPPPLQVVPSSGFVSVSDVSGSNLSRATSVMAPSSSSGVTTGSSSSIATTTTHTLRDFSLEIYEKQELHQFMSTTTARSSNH

Legend:
Assay in all cases: two-hybrid; matrix-based GAL4 yeast two-hybrid by mating (baits in PJ69-4alpha, preys in PJ69-4a); selection on SD-Leu-Trp-Ade or SD-Leu-Trp-His with 5 and 10 mM 3-amino-1,2,4-triazole; scored after 5 days at 30 °C; BD baits of TCP1, 2, 4, 10, 12, 18, 20 and 24 excluded for auto-activation; positive only if reproducible with at least two selection markers
[1] = molecular target: T1, TCP17 (Arabidopsis thaliana) (UniProt Q9LEZ9)
T1 sequence: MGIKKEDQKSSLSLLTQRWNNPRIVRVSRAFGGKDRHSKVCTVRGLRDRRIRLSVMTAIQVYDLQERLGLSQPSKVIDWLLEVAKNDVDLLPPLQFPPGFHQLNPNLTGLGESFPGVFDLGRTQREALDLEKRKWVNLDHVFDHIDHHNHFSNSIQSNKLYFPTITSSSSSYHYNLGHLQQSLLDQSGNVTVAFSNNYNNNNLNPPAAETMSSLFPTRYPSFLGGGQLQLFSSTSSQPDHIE

[2] = molecular target: T2, TCP16 (Arabidopsis thaliana) (UniProt Q9M1U4)
T2 sequence: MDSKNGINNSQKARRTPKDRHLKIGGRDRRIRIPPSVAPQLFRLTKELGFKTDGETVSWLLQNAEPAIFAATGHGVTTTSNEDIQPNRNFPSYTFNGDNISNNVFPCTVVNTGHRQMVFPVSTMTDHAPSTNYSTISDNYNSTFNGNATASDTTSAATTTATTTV

[3] = molecular target: TCP23 (Arabidopsis thaliana) (UniProt Q9LQF0)
[4] = molecular target: TCP22 (Arabidopsis thaliana) (UniProt Q9C7G4)
[5] = molecular target: TCP14 (Arabidopsis thaliana) (UniProt Q93Z00)
[6] = molecular target: TCP15 (Arabidopsis thaliana) (UniProt Q9C9L2)
[7] = molecular target: T3, TCP3 (Arabidopsis thaliana) (UniProt Q9MAH8)
T3 sequence: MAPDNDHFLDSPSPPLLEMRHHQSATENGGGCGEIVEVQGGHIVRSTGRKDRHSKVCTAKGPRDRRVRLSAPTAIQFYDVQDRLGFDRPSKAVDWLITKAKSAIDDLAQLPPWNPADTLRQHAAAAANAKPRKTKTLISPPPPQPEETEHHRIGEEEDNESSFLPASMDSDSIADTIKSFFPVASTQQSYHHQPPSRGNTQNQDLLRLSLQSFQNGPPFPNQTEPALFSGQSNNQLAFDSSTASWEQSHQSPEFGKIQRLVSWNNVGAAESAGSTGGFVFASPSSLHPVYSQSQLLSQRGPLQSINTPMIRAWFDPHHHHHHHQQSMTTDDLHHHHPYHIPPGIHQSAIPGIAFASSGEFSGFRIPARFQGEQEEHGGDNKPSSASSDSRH

Measured: binding

TCP9 (from UniProt O64647 1-356)
no binding: all assays above
